Counter-ions that a name gives are not always drawn. This is one part of the list. Many values rest on one well or one pass, so single values are uncertain.
System: primary mouse Muller glia with Ascl1 overexpression
Test: progenitor-like (ProL) cell count fold change vs Ascl1-only control (log2 fold change); higher = more progenitor-like cells
Description: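 Primary P11 mouse Muller glia carrying dox-inducible Ascl1 were treated with Tocriscreen Stem Cell Library compounds at 0.1, 1 or 10 uM together with doxycycline for 5 days, then profiled by sci-Plex hashing and sci-RNA-seq2. Cells were annotated by marker genes and cell-type counts per well were size-factor adjusted. Read-outs are the log2 fold change of Neuronal (NeuPre + bipolar) and ProL cell counts versus the Ascl1-only control wells of the same collection day, plus the raw number of recovered cells per well. There is one well per dose, and wells with fewer than 20 cells were discarded.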

SMILES	progenitor-like (log2) (0.1 µM)	progenitor-like (log2) (1 µM)	progenitor-like (log2) (10 µM)
COc1cccc(Oc2cccc3nc(Nc4ccc(C(C)C)cc4)nc(N)c23)c1 (collection day: 2)	0.366	-0.206	
NC(=O)c1cccnc1 [Nicotinamide] (collection day: 2)	-0.0656	0.152	-0.0656
CCN(CC)CCCCNc1ncc2cc(-c3cc(OC)cc(OC)c3)c(NC(=O)NC(C)(C)C)nc2n1 (collection day: 1)	0.541	0.495	
CC1=C(C(=O)Nc2cc3cn[nH]c3cc2F)C(c2ccc(C(F)(F)F)cc2)CC(=O)N1 (configuration not stated) (collection day: 2)	-0.134	0.181	-0.0995
O=C(O)c1ccccc1C(=O)Nc1ccc(-c2ccccc2)cc1 [Kartogenin] (collection day: 2)	0.0627	0.123	0.181
O=C1NC(=O)c2c1c(-c1ccccc1)cc1[nH]c3ccc(O)cc3c21 (collection day: 1)	0.184		
Nc1ncnc2c1nc(Br)n2[C@@H]1O[C@@H]2COP(=O)(O)O[C@H]2[C@H]1O [8-Bromo-cAMP, sodium salt] (collection day: 1)	0.399	0.495	0.863
C[S+]([O-])c1ccc(-c2nc(-c3ccc(F)cc3)c(-c3ccncc3)[nH]2)cc1 (configuration not stated) (collection day: 1)	0.585	1	0.67
O=C(O)c1ccc(S(=O)(=O)NC2CCCCC2)cc1 (collection day: 2)	0	0.0317	0.236
Nc1ncn([C@H]2C[C@H](O)[C@@H](CO)O2)c(=O)n1 [Decitabine] (collection day: 1)	0.541	0.241	0.541
Oc1nc(-c2ccc(C(F)(F)F)cc2)nc2c1CSCC2 (collection day: 2)	0.0627	0.341	0.209
CCCC(=O)Nc1ncnc2c1ncn2[C@@H]1O[C@@H]2COP(=O)(O)O[C@H]2[C@H]1OC(=O)CCC [Dibutyryl-cAMP, sodium salt] (collection day: 1)	0.399		0.863
Nc1ncn([C@@H]2O[C@H](CO)[C@@H](O)[C@H]2O)c(=O)n1 [5-Azacytidine] (collection day: 2)	0.181	0.236	-0.0324
CC(=O)N(C)c1cccc(-c2ccc3nnc(C)n3n2)c1 (collection day: 2)	0.209	0.181	0
CN1CCC[C@@H]1CCO[C@](C)(c1ccccc1)c1ccc(Cl)cc1 [Clemastine fumarate] (collection day: 1)	0.541	0.628	
COc1ccn2ncc(-c3nc4[nH]nc(NC(=O)c5ccc(F)cc5)c4cc3F)c2c1 (collection day: 2)	0.209	0.462	0.617

Ordered by count of non-hydrogen atoms (smallest number first): some entries from above
SMILES	progenitor-like (log2) (0.1 µM)	progenitor-like (log2) (1 µM)	progenitor-like (log2) (10 µM)
Oc1nc(-c2ccc(C(F)(F)F)cc2)nc2c1CSCC2 (collection day: 2)	0.0627	0.341	0.209
CC1=C(C(=O)Nc2cc3cn[nH]c3cc2F)C(c2ccc(C(F)(F)F)cc2)CC(=O)N1 (configuration not stated) (collection day: 2)	-0.134	0.181	-0.0995
CCN(CC)CCCCNc1ncc2cc(-c3cc(OC)cc(OC)c3)c(NC(=O)NC(C)(C)C)nc2n1 (collection day: 1)	0.541	0.495	
